Reference: patent US6372446B1, “Method of selectively determining a fungal biomass” (Mycometer ApS, priority 1997, dated 2002)
At least one structure is not confirmed: it was looked up by name or label, or the drawing left a doubt.

Experiments:
Assay in all cases: Screening on SEA and chitin agar containing 4-MU-GlcNAc
Assay type in all cases: cell-based
Settings in all cases: fluorescence under UV
[1] = system: Staphylococcus faecalis (AGMb21)
Fusarium solani (AGMf15) = system: Fusarium solani (AGMf15)
[2] = system: Micrococcus albus (AGMb28)
Penicillium sp. (AGMf22) = system: Penicillium sp. (AGMf22)
[3] = system: Verticillium clamydosporium (AGMf23)
[4] = system: Aspergillus flavus (AGMf19)
[5] = system: Paecilomyces sp. (AGMf21)
[6] = system: Vibrio auguillarium (AGMb46)
Geotrichum sp. (AGMf16) = system: Geotrichum sp. (AGMf16)
[7] = system: Pseudomonas aeruginosa (AGMb23)
Gliocladium sp. (AGMf17) = system: Gliocladium sp. (AGMf17)
Trichurus sp. (AGMf30) = system: Trichurus sp. (AGMf30)
[8] = system: Alcaligenes faecalis (AGMb4B)
Lylea tetracoila (Mk007) = system: Lylea tetracoila (Mk007)
Eschericia coli (AGMb30) = system: Eschericia coli (AGMb30)
[9] = system: Candida albicans (AGMf11)
Mucor sp. (AGMf20) = system: Mucor sp. (AGMf20)
[10] = system: Micrococcus luteus (AGMb5)
[11] = system: Bacillus megaterium (AGMb134)
Botrytis sp. (AGMf10) = system: Botrytis sp. (AGMf10)
Humicola sp. (AGMf19) = system: Humicola sp. (AGMf19)
[12] = system: Serratia marcescens (AGMb3)
Altetnaria sp. (AGMf4) = system: Altetnaria sp. (AGMf4)
Rhodotorula sp. (AGMf26) = system: Rhodotorula sp. (AGMf26)
[13] = system: Cylindrocladium sp. (AGMf36)
[14] = system: Proteus vulgaris (AGMb59)
Klebsiella sp. (AGMb52) = system: Klebsiella sp. (AGMb52)
[15] = system: Arthrobacter simplex (AGMb45)
[16] = system: Trichoderma polysporum (ACMf31)
[17] = system: Enterobacter aerogenes (AGMb62)
[18] = system: Bacillus subtilis (AGMb34)
Beauveria sp. (AGMf35) = system: Beauveria sp. (AGMf35)
[19] = system: Cephalosporium sp. (AGMf13)
[20] = system: Comamonas acidovarans (AGMb56)
Diplodia sp. (AGMf39) = system: Diplodia sp. (AGMf39)
Bacillus cereus (AGMb8) = system: Bacillus cereus (AGMb8)
[21] = system: Rhizobium meliloti (AGMb60)
[22] = system: Staphylococcus epidermis (AGMb64)
[23] = system: Staphylococcus aureus (AGMb20)
[24] = system: Acremonium inflatum (Mk001)
[25] = system: Bacillus thuringiensis (AGMb18)

SMILES: CC(=O)N[C@H]1[C@H](Oc2ccc3c(C)cc(=O)oc3c2)O[C@H](CO)[C@@H](O)[C@@H]1O [substrate 3, 4-methylumbelliferyl N-acetyl-β-D-blucosaminide]
- β-N-acetylhexosamidase activity ([1]; Chitin agar): +
- β-N-acetylhexosamidase activity ([1]; SEA (soil extract agar)): −
- β-N-acetylhexosamidase activity (Fusarium solani (AGMf15); Chitin agar): +
- β-N-acetylhexosamidase activity (Fusarium solani (AGMf15); SEA (soil extract agar)): +
- β-N-acetylhexosamidase activity ([2]; Chitin agar): −
- β-N-acetylhexosamidase activity ([2]; SEA (soil extract agar)): −
- β-N-acetylhexosamidase activity (Penicillium sp. (AGMf22); Chitin agar): +
- β-N-acetylhexosamidase activity (Penicillium sp. (AGMf22); SEA (soil extract agar)): +
- β-N-acetylhexosamidase activity ([3]; Chitin agar): +
- β-N-acetylhexosamidase activity ([3]; SEA (soil extract agar)): +
- β-N-acetylhexosamidase activity ([4]; Chitin agar): +
- β-N-acetylhexosamidase activity ([4]; SEA (soil extract agar)): +
- β-N-acetylhexosamidase activity ([5]; Chitin agar): +
- β-N-acetylhexosamidase activity ([5]; SEA (soil extract agar)): −
- β-N-acetylhexosamidase activity ([6]; Chitin agar): −
- β-N-acetylhexosamidase activity ([6]; SEA (soil extract agar)): −
- β-N-acetylhexosamidase activity (Geotrichum sp. (AGMf16); Chitin agar): +
- β-N-acetylhexosamidase activity (Geotrichum sp. (AGMf16); SEA (soil extract agar)): +
- β-N-acetylhexosamidase activity ([7]; Chitin agar): −
- β-N-acetylhexosamidase activity ([7]; SEA (soil extract agar)): −
- β-N-acetylhexosamidase activity (Gliocladium sp. (AGMf17); Chitin agar): +
- β-N-acetylhexosamidase activity (Gliocladium sp. (AGMf17); SEA (soil extract agar)): +
- β-N-acetylhexosamidase activity (Trichurus sp. (AGMf30); Chitin agar): +
- β-N-acetylhexosamidase activity (Trichurus sp. (AGMf30); SEA (soil extract agar)): +
- β-N-acetylhexosamidase activity ([8]; Chitin agar): −
- β-N-acetylhexosamidase activity ([8]; SEA (soil extract agar)): −
- β-N-acetylhexosamidase activity (Lylea tetracoila (Mk007); Chitin agar): +
- β-N-acetylhexosamidase activity (Lylea tetracoila (Mk007); SEA (soil extract agar)): +
- β-N-acetylhexosamidase activity (Eschericia coli (AGMb30); Chitin agar): −
- β-N-acetylhexosamidase activity (Eschericia coli (AGMb30); SEA (soil extract agar)): −
- β-N-acetylhexosamidase activity ([9]; Chitin agar): +
- β-N-acetylhexosamidase activity ([9]; SEA (soil extract agar)): +
- β-N-acetylhexosamidase activity (Mucor sp. (AGMf20); Chitin agar): +
- β-N-acetylhexosamidase activity (Mucor sp. (AGMf20); SEA (soil extract agar)): +
- β-N-acetylhexosamidase activity ([10]; Chitin agar): +
- β-N-acetylhexosamidase activity ([10]; SEA (soil extract agar)): −
- β-N-acetylhexosamidase activity ([11]; Chitin agar): −
- β-N-acetylhexosamidase activity ([11]; SEA (soil extract agar)): −
- β-N-acetylhexosamidase activity (Botrytis sp. (AGMf10); Chitin agar): +
- β-N-acetylhexosamidase activity (Botrytis sp. (AGMf10); SEA (soil extract agar)): +
- β-N-acetylhexosamidase activity (Humicola sp. (AGMf19); Chitin agar): +
- β-N-acetylhexosamidase activity (Humicola sp. (AGMf19); SEA (soil extract agar)): +
- β-N-acetylhexosamidase activity ([12]; Chitin agar): +
- β-N-acetylhexosamidase activity ([12]; SEA (soil extract agar)): −
- β-N-acetylhexosamidase activity (Altetnaria sp. (AGMf4); Chitin agar): +
- β-N-acetylhexosamidase activity (Altetnaria sp. (AGMf4); SEA (soil extract agar)): −
- β-N-acetylhexosamidase activity (Rhodotorula sp. (AGMf26); Chitin agar): −
- β-N-acetylhexosamidase activity (Rhodotorula sp. (AGMf26); SEA (soil extract agar)): −
- β-N-acetylhexosamidase activity ([13]; Chitin agar): +
- β-N-acetylhexosamidase activity ([13]; SEA (soil extract agar)): +
- β-N-acetylhexosamidase activity ([14]; Chitin agar): +
- β-N-acetylhexosamidase activity ([14]; SEA (soil extract agar)): −
- β-N-acetylhexosamidase activity (Klebsiella sp. (AGMb52); Chitin agar): +
- β-N-acetylhexosamidase activity (Klebsiella sp. (AGMb52); SEA (soil extract agar)): −
- β-N-acetylhexosamidase activity ([15]; Chitin agar): −
- β-N-acetylhexosamidase activity ([15]; SEA (soil extract agar)): −
- β-N-acetylhexosamidase activity ([16]; Chitin agar): +
- β-N-acetylhexosamidase activity ([16]; SEA (soil extract agar)): +
- β-N-acetylhexosamidase activity ([17]; Chitin agar): −
- β-N-acetylhexosamidase activity ([17]; SEA (soil extract agar)): −
- β-N-acetylhexosamidase activity ([18]; Chitin agar): −
- β-N-acetylhexosamidase activity ([18]; SEA (soil extract agar)): −
- β-N-acetylhexosamidase activity (Beauveria sp. (AGMf35); Chitin agar): +
- β-N-acetylhexosamidase activity (Beauveria sp. (AGMf35); SEA (soil extract agar)): +
- β-N-acetylhexosamidase activity ([19]; Chitin agar): +
- β-N-acetylhexosamidase activity ([19]; SEA (soil extract agar)): +
- β-N-acetylhexosamidase activity ([20]; Chitin agar): −
- β-N-acetylhexosamidase activity ([20]; SEA (soil extract agar)): −
- β-N-acetylhexosamidase activity (Diplodia sp. (AGMf39); Chitin agar): +
- β-N-acetylhexosamidase activity (Diplodia sp. (AGMf39); SEA (soil extract agar)): +
- β-N-acetylhexosamidase activity (Bacillus cereus (AGMb8); Chitin agar): −
- β-N-acetylhexosamidase activity (Bacillus cereus (AGMb8); SEA (soil extract agar)): −
- β-N-acetylhexosamidase activity ([21]; Chitin agar): −
- β-N-acetylhexosamidase activity ([21]; SEA (soil extract agar)): −
- β-N-acetylhexosamidase activity ([22]; Chitin agar): −
- β-N-acetylhexosamidase activity ([22]; SEA (soil extract agar)): −
- β-N-acetylhexosamidase activity ([23]; Chitin agar): −
- β-N-acetylhexosamidase activity ([23]; SEA (soil extract agar)): −
- β-N-acetylhexosamidase activity ([24]; Chitin agar): +
- β-N-acetylhexosamidase activity ([24]; SEA (soil extract agar)): +
- β-N-acetylhexosamidase activity ([25]; Chitin agar): −
- β-N-acetylhexosamidase activity ([25]; SEA (soil extract agar)): −
